Experiment [1] concerns the target 3xHA-TurboID-OTX2 fusion protein (human) (UniProt P32243). Kind of experiment: proximity labelling; TurboID: 3xHA-TurboID-OTX2 transfected into HDMB03 tumourspheres, 72 h, 500 μM biotin for 15 min, RIPA lysis, streptavidin–sepharose, mass spectrometry, SAINTexpress against TurboID control.
For experiment [2] the target is unchanged. Described as above. This is another data set of the same source.

The chains behind the UniProt entries cited, without tags or fusion partners.
UniProt P32243: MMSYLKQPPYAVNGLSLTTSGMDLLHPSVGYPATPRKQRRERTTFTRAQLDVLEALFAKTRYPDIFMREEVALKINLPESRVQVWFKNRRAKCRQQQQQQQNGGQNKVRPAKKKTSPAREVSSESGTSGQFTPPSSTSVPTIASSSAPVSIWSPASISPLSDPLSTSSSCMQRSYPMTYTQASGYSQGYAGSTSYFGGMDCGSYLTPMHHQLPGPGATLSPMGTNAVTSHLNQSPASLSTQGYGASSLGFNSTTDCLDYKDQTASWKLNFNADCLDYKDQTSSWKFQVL
UniProt Q16650: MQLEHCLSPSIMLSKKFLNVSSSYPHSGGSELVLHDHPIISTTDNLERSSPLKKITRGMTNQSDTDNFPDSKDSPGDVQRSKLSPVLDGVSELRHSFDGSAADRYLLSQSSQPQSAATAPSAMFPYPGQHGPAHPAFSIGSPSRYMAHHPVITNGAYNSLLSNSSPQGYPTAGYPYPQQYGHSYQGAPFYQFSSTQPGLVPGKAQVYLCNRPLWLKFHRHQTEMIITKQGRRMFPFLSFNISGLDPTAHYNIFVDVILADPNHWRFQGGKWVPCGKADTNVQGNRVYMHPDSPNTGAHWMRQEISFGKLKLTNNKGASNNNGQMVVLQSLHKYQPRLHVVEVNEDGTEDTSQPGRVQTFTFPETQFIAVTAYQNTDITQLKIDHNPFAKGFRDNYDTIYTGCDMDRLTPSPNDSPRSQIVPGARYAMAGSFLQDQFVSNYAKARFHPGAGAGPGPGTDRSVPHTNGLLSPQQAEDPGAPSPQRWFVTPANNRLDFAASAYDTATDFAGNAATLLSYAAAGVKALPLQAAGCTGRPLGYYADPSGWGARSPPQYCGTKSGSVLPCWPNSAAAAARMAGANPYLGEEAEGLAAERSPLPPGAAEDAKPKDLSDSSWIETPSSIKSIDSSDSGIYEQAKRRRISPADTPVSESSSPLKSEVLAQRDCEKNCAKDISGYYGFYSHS

Binding data for two molecules are collected here from article PMC11321995.

Like-named read-outs stand apart in the source and are kept apart here. These are yes or no findings as the source states them, for the method shown. In cells and extracts the contact can be indirect. These calls come from enrichment with a bait or labelling near it, and not all partners need be listed.

For “T-box brain transcription factor 1 (from UniProt Q16650 1-682)”, in experiment [1], the binding result was “binds”.

B1: heterogeneous nuclear ribonucleoprotein M (HNRNPM) (protein, UniProt P52272 1-730)
chain: MAAGVEAAAEVAATEIKMEEESGAPGVPSGNGAPGPKGEGERPAQNEKRKEKNIKRGGNRFEPYANPTKRYRAFITNIPFDVKWQSLKDLVKEKVGEVTYVELLMDAEGKSRGCAVVEFKMEESMKKAAEVLNKHSLSGRPLKVKEDPDGEHARRAMQKVMATTGGMGMGPGGPGMITIPPSILNNPNIPNEIIHALQAGRLGSTVFVANLDYKVGWKKLKEVFSMAGVVVRADILEDKDGKSRGIGTVTFEQSIEAVQAISMFNGQLLFDRPMHVKMDERALPKGDFFPPERPQQLPHGLGGIGMGLGPGGQPIDANHLNKGIGMGNIGPAGMGMEGIGFGINKMGGMEGPFGGGMENMGRFGSGMNMGRINEILSNALKRGEIIAKQGGGGGGGSVPGIERMGPGIDRLGGAGMERMGAGLGHGMDRVGSEIERMGLVMDRMGSVERMGSGIERMGPLGLDHMASSIERMGQTMERIGSGVERMGAGMGFGLERMAAPIDRVGQTIERMGSGVERMGPAIERMGLSMERMVPAGMGAGLERMGPVMDRMATGLERMGANNLERMGLERMGANSLERMGLERMGANSLERMGPAMGPALGAGIERMGLAMGGGGGASFDRAIEMERGNFGGSFAGSFGGAGGHAPGVARKACQIFVRNLPFDFTWKMLKDKFNECGHVLYADIKMENGKSKGCGVVKFESPEVAERACRMMNGMKLSGREIDVRIDRNA
B1: the binding result in experiment [2] was “binds”.
